Reference: patent US20260159812A1

Target: Histone H2a (mouse)
Assay: miniTurbo proximity biotinylation (BioID) in MEFs, streptavidin pulldown and proteomics; proximity, not direct binding

B1: PHF7^miniTurbo (protein)
chain: MKTVKEKKECQRLRKSAKTRRVTQRKPSSGPVCWLCLREPGDPEKLGEFLQKDNISVHYFCLILSSKLPQRGQSNRGFHGFLPEDIKKEAARASRKICFVCKKKGAAINCQKDQCLRNFHLPCGQERGCLSQFFGEYKSFCDKHRPTQNIQHGHVGEESCILCCEDLSQQSVENIQSPCCSQAIYHRKCIQKYAHTSAKHFFKCPQCNNRKEFPQEMLRMGIHIPDRDAAWELEPGAFSDLYQRYQHCDAPICLYEQGRDSFEDEGRWCLILCATCGSHGTHRDCSSLRSNSKKWECEECSPAAATDYIPENSGDIPCCSSTFHPEEHFCRDNTLEENPGLSWTDWPEPSLLEKPESSRGRRSYSWRSKGVRITNSCKKSK
In the case of B1, the binding is reported as “binds”.

Results are given in words; binding and its absence hold for the method and conditions named. Binding seen in cells or lysates may run through a third protein. A yes stands for co-enrichment or nearness to the bait. Other partners may have been found.
